Experimental data as given in publication PMC7819943, “Rice protein-binding microarrays: a tool to detect cis-acting elements near promoter regions in rice”.
Some of the results follow.

Biological target: T1, OsSMF1 (Oryza sativa, UniProt Q6ZLB0 1-436)
T1 sequence: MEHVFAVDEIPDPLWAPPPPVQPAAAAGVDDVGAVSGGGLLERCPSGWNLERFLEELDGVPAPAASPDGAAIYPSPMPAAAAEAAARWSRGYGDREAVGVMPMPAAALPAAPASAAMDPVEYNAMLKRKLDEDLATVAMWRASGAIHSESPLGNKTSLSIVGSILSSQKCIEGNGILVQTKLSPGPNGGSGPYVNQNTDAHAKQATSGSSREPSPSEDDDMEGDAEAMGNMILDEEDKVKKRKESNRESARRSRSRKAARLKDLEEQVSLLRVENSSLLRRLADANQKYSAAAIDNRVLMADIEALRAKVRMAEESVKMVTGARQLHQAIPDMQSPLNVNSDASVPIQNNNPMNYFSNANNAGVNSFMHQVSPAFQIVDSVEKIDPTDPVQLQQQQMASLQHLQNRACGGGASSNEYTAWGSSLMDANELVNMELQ
Experiment: protein-binding microarray (RPBM); PBS, 2% BSA, 51.3 ng/ul salmon testes DNA, 50 uM zinc acetate, 200 nM TF, 25 C, 1 h; high values mean tight binding
Conditions: protein: recombinant; tags: N-terminal polyhistidine and DsRed monomer fusion (pET32a); chain copies: 2; label: CyDye5-dUTP incorporated in the synthesized complementary strand; 3' TTTTT single-stranded linker to array surface; dsDNA, one strand shown
Outline: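 Transcription factors were each fused at the N-terminus to a polyhistidine tag plus DsRed and expressed in E. coli BL21-CodonPlus before Ni–NTA purification. Binding to a double-stranded custom Agilent array was carried out with 200 nM protein at 25 °C for 1 h in PBS, 2% BSA, salmon testes DNA and 50 µM zinc acetate. The binding signal is per-feature fluorescence intensity, in arbitrary units, on an Axon 4000B scanner.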

Row | Sequence | binding signal
1 | GCACGGCACGGCCCACAAGCGGGCGTGCCTGGGCCGGCTACGGAGTCACCTAGTGCAG | 22600 fluorescence intensity (a.u.)
2 | GGTGGGCCGGACCTGGCCCATATGTCACGTGACAAGCTGCCGGAGTCACCTAGTGCAG | 4070 fluorescence intensity (a.u.)
3 | TCGCATGACGTCATCGTCAACTTGTTTCAACTTTTCCATCCGGAGTCACCTAGTGCAG | 25300 fluorescence intensity (a.u.)
4 | ACCTGGCCCCGTTGCTACCGCTGATCTGGCTTCGTGGACCCGGAGTCACCTAGTGCAG | 5210 fluorescence intensity (a.u.)
5 | TAGGAGTTAGGAGGCATCTGCGTCAAGCATTCTCCTGCTGCGGAGTCACCTAGTGCAG | 3950 fluorescence intensity (a.u.)
6 | TATTCTCAATATTGTCGTAGGAGTAATTTTCTACTGGTTTCGGAGTCACCTAGTGCAG | 23300 fluorescence intensity (a.u.)
7 | ATTCTCTGACCTAAATGTCTATTCCACGTTCAACCATTTTCGGAGTCACCTAGTGCAG | 3540 fluorescence intensity (a.u.)
8 | ATGCTTTGCGACTTGCGAGAAGAACTTCTCGTCTTCTCAACGGAGTCACCTAGTGCAG | 25200 fluorescence intensity (a.u.)
9 | GGCTAGGCCGAAGACAGTATGGGCCATTCTCGTCAGCGCCCGGAGTCACCTAGTGCAG | 3760 fluorescence intensity (a.u.)
10 | CTCATCCCCGTGCGCTGCTGCTGCTGTGTCGTCGTCGTCGCGGAGTCACCTAGTGCAG | 3210 fluorescence intensity (a.u.)
11 | GAATGACATTGCCAGCTGTGATAACTAAGTATTTGTGGACCGGAGTCACCTAGTGCAG | 4820 fluorescence intensity (a.u.)
12 | TTCGAGGGATATCTCCTCGTTATTTACATGTCATCTAAATCGGAGTCACCTAGTGCAG | 4100 fluorescence intensity (a.u.)
13 | CCATACCTCCTATGACAGCTCTGATGATTCCCTTGATTATCGGAGTCACCTAGTGCAG | 3350 fluorescence intensity (a.u.)
14 | ACGCGACGGCCACAAGGTGTTCGACGCCGTCTCGCCGGAGCGGAGTCACCTAGTGCAG | 3280 fluorescence intensity (a.u.)
15 | GTCTACGTGATGTGTCCGCGTGAAAAGTAACGTGGGCCCCCGGAGTCACCTAGTGCAG | 5440 fluorescence intensity (a.u.)
16 | CTCCGCGACGAACTGCCCCGTCGTGTGTCCACGTGGCTCACGGAGTCACCTAGTGCAG | 12600 fluorescence intensity (a.u.)
17 | ATTTTGTTTGTTGCATTTGGCATCATCATCTGGAAGAGAGCGGAGTCACCTAGTGCAG | 3200 fluorescence intensity (a.u.)
18 | TGCCGATAGACACCGCGCCGTCTGCCATGCTGACGTGTCGCGGAGTCACCTAGTGCAG | 21600 fluorescence intensity (a.u.)
19 | ATGAAGGATGCTTAAAAGTCTATTTTGCCTCGGCAAAATACGGAGTCACCTAGTGCAG | 28700 fluorescence intensity (a.u.)
20 | GGCCCAAATTCCAAACGTGGATGCAAACTCTGACTCTGACCGGAGTCACCTAGTGCAG | 3400 fluorescence intensity (a.u.)
21 | ACTCCACTTGTGTTGCTACAACTTTACTAAGCTAGCTCAGCGGAGTCACCTAGTGCAG | 3210 fluorescence intensity (a.u.)

Row | Sequence | binding signal
22 | CTGAAATTCCCTTCCGATATCTAGTCAAACGTCTGATATGCGGAGTCACCTAGTGCAG | 3780 fluorescence intensity (a.u.)
23 | AAGGATGGTTGGTTGGTTGGTTGGTTGGTGAGTTGTCTCCCGGAGTCACCTAGTGCAG | 6530 fluorescence intensity (a.u.)
24 | CTCAATGCGGTTTGATTGACGTGTAGAGCAGCCATTGGCCCGGAGTCACCTAGTGCAG | 8000 fluorescence intensity (a.u.)
25 | AAAGTTTCATGCCTGAGATGTTATGTTACGTGTCTATCCACGGAGTCACCTAGTGCAG | 7680 fluorescence intensity (a.u.)
26 | CGGCTTCCCGACGGTGGCGGCGCACGTGGGCGAGGCTGAGCGGAGTCACCTAGTGCAG | 3800 fluorescence intensity (a.u.)
27 | AGATTTTGTTACTGCATTTCAACTGTTCCGTTACTGCATTCGGAGTCACCTAGTGCAG | 3650 fluorescence intensity (a.u.)
28 | GCGAACGAACGGCGTGGATCTGAAGGTGGTGAGGTCGGCGCGGAGTCACCTAGTGCAG | 3850 fluorescence intensity (a.u.)
29 | TTCGTCTCGCAGTTTACAGGCAAAATCTGTATTTTGTTTTCGGAGTCACCTAGTGCAG | 3440 fluorescence intensity (a.u.)
30 | AATAACATATTTTGATAAGTTTGGTGACCTGGACGACACGCGGAGTCACCTAGTGCAG | 4760 fluorescence intensity (a.u.)
31 | GCCCCGCTTCCTTTATTAGGCCGCGTCACCCCTCTCTCCGCGGAGTCACCTAGTGCAG | 11600 fluorescence intensity (a.u.)
32 | TGGCAAGGATGGAGATTGTTTTGGAAAGATATTTTGCGCCCGGAGTCACCTAGTGCAG | 3550 fluorescence intensity (a.u.)
33 | CCTGTTGCTAACGGCAGTGCCTATGAGATACAGTTTCTGACGGAGTCACCTAGTGCAG | 3700 fluorescence intensity (a.u.)
34 | GTGGAGACCAATGACCTGTGGTTCGTCATCGGCGAGGAGGCGGAGTCACCTAGTGCAG | 4110 fluorescence intensity (a.u.)
35 | CTTGTAATTTATGGCTATATACACCTGTCAGCCGGGACTACGGAGTCACCTAGTGCAG | 3420 fluorescence intensity (a.u.)
36 | AAGCGTCACGGTTTGAGTGGTACGTGTCTCCAGCGCCGTGCGGAGTCACCTAGTGCAG | 3880 fluorescence intensity (a.u.)
37 | TGAGAGCGCGACCGCCGCCACCTCAATAGAAACCGCCGAGCGGAGTCACCTAGTGCAG | 3210 fluorescence intensity (a.u.)
38 | TGCATCATCGGTCGCAATGGATAGGAGGATAGGATCGCAGCGGAGTCACCTAGTGCAG | 34200 fluorescence intensity (a.u.)
39 | CCTACTCCTGCTCCTGCTGCTCCGCTTCCGCGCCGCCGCCCGGAGTCACCTAGTGCAG | 3790 fluorescence intensity (a.u.)
40 | GATTCGTCTCGTAAAATAGGCTAGGGATTATGGAATCGGTCGGAGTCACCTAGTGCAG | 3140 fluorescence intensity (a.u.)
41 | GCGCTCCCGCAAGAGGCCCTTGATGATGTCGTCGATGGCACGGAGTCACCTAGTGCAG | 4270 fluorescence intensity (a.u.)
42 | TACGCCGTTGCTTATAAAAGGCCTTGGCCTTGTGTCACATCGGAGTCACCTAGTGCAG | 3170 fluorescence intensity (a.u.)

Individual results from the list:
Under binding signal, TCGCATGACGTCATCGTCAACTTGTTTCAACTTTTCCATCCGGAGTCACCTAGTGCAG is entered as 25300 fluorescence intensity (a.u.)
Under binding signal, GCCCCGCTTCCTTTATTAGGCCGCGTCACCCCTCTCTCCGCGGAGTCACCTAGTGCAG is entered as 11600 fluorescence intensity (a.u.)
Under binding signal, GCGAACGAACGGCGTGGATCTGAAGGTGGTGAGGTCGGCGCGGAGTCACCTAGTGCAG is entered as 3850 fluorescence intensity (a.u.)
